Measurements as given in the supplement of paper PMC12067093, “Discovery and optimisation of a covalent ligand for TRIM25 and its application to targeted protein ubiquitination” (Chemical Science, 2025).
The other results are listed elsewhere or left out.

Sequences of proteins named here, by UniProt entry; tags and fusion partners are left off. A change or cut given only in a name is not applied to a line headed by its entry.
UniProt P26447: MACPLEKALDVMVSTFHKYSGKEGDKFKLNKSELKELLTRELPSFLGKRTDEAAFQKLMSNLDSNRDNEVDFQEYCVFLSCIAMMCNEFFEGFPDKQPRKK
UniProt Q8WWV3: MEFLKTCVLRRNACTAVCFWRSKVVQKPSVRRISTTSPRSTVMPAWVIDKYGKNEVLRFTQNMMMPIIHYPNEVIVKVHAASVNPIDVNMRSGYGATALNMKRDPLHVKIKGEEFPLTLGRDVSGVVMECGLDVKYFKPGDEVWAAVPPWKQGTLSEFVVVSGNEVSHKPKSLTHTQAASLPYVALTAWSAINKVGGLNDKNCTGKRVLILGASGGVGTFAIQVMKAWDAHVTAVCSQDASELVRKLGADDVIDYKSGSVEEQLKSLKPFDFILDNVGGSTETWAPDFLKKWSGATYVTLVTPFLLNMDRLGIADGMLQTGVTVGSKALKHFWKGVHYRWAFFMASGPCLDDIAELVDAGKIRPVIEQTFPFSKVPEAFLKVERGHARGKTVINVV
UniProt Q9UBE0: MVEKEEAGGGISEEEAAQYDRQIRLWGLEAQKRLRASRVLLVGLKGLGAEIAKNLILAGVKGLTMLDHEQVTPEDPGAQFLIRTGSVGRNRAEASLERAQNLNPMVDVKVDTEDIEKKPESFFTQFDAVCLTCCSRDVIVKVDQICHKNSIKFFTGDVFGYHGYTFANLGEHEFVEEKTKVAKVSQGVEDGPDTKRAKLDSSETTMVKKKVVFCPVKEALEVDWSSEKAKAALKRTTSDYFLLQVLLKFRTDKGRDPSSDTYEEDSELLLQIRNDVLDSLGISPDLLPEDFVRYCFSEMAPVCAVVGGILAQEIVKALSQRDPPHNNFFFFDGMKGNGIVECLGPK
UniProt Q6PCB5: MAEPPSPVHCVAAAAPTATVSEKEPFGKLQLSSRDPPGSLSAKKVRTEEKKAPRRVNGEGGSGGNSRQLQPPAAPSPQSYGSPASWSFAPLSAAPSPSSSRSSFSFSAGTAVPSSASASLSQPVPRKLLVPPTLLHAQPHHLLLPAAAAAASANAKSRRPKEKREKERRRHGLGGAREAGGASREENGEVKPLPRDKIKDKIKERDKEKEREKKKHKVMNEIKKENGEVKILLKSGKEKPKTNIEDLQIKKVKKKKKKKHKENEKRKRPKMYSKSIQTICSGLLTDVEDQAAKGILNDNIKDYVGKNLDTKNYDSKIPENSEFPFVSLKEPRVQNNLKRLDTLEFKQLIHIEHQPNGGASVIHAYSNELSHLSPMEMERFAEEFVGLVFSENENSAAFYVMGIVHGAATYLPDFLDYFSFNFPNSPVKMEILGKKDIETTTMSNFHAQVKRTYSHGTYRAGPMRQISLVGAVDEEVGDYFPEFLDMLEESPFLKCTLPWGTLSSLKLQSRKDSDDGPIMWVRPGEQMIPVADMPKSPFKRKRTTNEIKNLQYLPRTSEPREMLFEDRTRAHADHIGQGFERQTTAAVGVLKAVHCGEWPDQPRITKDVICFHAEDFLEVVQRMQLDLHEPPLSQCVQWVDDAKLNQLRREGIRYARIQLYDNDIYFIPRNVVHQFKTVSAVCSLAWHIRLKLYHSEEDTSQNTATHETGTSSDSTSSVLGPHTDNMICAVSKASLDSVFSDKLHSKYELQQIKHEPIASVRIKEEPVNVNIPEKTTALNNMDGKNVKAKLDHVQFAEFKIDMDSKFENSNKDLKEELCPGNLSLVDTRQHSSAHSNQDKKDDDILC
UniProt P56182: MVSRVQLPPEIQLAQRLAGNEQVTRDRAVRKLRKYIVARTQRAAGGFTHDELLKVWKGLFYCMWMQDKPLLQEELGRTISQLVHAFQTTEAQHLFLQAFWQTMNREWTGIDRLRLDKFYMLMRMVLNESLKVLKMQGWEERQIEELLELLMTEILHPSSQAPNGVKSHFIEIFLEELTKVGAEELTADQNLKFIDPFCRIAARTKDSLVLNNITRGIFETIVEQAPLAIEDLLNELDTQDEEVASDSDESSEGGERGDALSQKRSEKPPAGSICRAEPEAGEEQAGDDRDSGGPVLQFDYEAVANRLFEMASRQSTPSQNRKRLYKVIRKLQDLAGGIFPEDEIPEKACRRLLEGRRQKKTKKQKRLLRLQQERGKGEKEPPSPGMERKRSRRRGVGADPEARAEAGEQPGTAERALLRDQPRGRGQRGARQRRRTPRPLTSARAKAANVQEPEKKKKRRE
UniProt Q9NTJ5: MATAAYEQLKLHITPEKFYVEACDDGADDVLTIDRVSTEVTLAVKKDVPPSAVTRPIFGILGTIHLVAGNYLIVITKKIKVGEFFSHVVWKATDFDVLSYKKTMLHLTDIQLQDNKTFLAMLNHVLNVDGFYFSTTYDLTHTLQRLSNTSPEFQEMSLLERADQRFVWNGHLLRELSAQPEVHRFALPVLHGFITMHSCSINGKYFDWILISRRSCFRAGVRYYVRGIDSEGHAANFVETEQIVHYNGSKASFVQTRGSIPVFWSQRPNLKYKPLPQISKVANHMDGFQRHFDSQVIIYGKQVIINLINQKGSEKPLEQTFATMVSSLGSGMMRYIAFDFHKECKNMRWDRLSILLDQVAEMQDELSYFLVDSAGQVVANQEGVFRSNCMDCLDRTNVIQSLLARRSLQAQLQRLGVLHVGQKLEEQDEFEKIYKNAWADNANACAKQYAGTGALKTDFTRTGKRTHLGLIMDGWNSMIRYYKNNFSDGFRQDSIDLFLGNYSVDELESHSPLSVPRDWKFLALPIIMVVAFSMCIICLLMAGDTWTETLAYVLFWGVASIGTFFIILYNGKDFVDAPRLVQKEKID
UniProt Q9Y265, whole entry, looked up: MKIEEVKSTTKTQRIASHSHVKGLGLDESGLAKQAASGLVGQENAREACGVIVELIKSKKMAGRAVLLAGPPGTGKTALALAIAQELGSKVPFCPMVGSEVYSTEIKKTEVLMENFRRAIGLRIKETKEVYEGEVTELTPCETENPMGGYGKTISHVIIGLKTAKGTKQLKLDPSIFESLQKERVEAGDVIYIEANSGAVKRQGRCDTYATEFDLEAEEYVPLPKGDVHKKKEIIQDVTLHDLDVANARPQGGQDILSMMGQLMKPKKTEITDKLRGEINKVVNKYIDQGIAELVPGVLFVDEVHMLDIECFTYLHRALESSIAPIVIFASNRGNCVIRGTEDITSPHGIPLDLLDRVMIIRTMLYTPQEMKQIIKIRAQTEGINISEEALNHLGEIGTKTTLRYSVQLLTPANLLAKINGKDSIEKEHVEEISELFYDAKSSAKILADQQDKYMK
UniProt Q8IVG5: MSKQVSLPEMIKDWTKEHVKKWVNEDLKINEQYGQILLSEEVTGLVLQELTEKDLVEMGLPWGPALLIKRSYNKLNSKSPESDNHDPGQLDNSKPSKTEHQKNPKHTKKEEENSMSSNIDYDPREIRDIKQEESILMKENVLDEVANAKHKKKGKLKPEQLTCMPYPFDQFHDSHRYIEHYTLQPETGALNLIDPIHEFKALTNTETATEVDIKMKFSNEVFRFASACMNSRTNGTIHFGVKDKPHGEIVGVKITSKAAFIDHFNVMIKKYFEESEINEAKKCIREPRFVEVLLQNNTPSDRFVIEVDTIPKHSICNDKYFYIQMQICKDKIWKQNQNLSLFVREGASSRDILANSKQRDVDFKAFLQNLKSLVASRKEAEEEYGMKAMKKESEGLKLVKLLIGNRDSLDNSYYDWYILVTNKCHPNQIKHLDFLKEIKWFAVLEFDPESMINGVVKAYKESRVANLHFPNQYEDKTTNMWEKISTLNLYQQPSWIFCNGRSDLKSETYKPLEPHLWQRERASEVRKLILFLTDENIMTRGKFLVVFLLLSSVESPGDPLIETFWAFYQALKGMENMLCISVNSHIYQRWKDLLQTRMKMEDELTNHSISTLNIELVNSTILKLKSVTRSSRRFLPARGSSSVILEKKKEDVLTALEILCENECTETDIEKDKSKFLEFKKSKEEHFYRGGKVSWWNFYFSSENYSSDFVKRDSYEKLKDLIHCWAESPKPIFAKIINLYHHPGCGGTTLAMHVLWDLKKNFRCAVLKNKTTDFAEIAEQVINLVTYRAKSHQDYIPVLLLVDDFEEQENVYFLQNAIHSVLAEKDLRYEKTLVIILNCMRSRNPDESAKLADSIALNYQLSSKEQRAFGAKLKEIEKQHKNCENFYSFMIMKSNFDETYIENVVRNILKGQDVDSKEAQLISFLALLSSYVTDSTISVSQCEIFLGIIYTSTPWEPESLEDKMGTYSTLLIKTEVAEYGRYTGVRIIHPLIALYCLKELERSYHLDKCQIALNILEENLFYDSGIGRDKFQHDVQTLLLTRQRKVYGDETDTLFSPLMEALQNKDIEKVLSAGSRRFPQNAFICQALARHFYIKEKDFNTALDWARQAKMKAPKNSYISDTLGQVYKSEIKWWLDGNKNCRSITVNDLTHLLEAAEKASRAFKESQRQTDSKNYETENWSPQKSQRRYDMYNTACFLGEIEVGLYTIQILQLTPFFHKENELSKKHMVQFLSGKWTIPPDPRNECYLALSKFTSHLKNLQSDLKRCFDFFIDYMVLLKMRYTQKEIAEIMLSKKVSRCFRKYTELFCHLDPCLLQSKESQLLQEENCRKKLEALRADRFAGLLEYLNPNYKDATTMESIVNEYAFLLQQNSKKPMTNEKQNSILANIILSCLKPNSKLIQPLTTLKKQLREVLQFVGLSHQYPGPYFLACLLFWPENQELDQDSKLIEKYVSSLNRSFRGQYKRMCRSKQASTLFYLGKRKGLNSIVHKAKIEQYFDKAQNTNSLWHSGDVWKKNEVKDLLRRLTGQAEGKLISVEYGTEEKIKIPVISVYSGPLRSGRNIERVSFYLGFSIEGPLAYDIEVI
UniProt A6NKF1: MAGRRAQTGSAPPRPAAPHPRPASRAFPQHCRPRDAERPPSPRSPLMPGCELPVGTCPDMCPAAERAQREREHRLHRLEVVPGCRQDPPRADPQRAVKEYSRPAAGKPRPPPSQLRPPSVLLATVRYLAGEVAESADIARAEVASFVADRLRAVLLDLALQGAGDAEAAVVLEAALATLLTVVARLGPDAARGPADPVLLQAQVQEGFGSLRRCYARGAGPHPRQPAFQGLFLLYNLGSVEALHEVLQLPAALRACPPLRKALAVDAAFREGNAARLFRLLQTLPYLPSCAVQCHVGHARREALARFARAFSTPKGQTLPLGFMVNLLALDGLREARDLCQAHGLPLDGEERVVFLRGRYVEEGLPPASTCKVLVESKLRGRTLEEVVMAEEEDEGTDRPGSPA

Compound: CC1Cc2ccccc2N1C(=O)C1CCCN(C1)C(=O)CCl (mixture of isomers) [TRIM25 ligand 11 (diastereomer mixture)]
Assay: probe-labelled cysteine peptide fold change vs DMSO (competition) (log2 fold change); higher = less target engagement (more negative = stronger competition)
Conditions: THP-1, incubation time: 4 h
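Also: competitive chemoproteomic profiling in live THP-1 cells with an iodoacetamide desthiobiotin (IA-DTB) probe, comparing probe-labelled peptide intensities in compound-treated cells against DMSO-treated controls.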

Row | Target | probe-labelled cysteine peptide fold change (10 µM) | probe-labelled cysteine peptide fold change (50 µM)
1 | SACS_Q9NZJ4_1160_WVPACK (UniProt Q9NZJ4) | -0.0572 | 0.132
2 | RPS8_P62241_182_PGQCGR (UniProt P62241) | -0.0777 | 0.0249
3 | S100A4_P26447_3_ACPLEK (UniProt P26447) | -0.23 | -0.151
4 | RTN4IP1_Q8WWV3_130_DVSGVVMECGLDVK (UniProt Q8WWV3) | 0.0727 | 0.161
5 | SAE1_Q9UBE0_214_KVVFCPVK (UniProt Q9UBE0) | -0.0881 | -0.131
6 | RSL24D1_Q9UHA3_9_CYFCSGPIYPGHGMMFVR (UniProt Q9UHA3) | -0.21 | -0.0866
7 | RPS11_P62280_60_CPFTGNVSIR (UniProt P62280) | -0.0697 | -0.146
8 | RSBN1L_Q6PCB5_10_AEPPSPVHCVAAAAPTATVSEK (UniProt Q6PCB5) | 0.0426 | 0.0361
9 | RPS15A_P62244_72_CGVISPR (UniProt P62244) | -0.044 | -0.0605
10 | RRP1_P56182_62_GLFYCMWMQDKPLLQEELGR (UniProt P56182) | -0.504 | -0.404
11 | RSBN1L_Q6PCB5_818_EELCPGNLSLVDTR (UniProt Q6PCB5) | -0.0817 | -0.286
12 | SACM1L_Q9NTJ5_445_NAWADNANACAK (UniProt Q9NTJ5) | -0.0638 | -0.203
13 | RUVBL1_Q9Y265_141_EVYEGEVTELTPCETENPMGGYGK (UniProt Q9Y265) | -0.0541 | -0.104
14 | SAMD9L_Q8IVG5_1085_RFPQNAFICQALAR (UniProt Q8IVG5) | -0.0374 | 0.149
15 | SAC3D1_A6NKF1_290_LLQTLPYLPSCAVQCHVGHAR (UniProt A6NKF1) | -0.0384 | 0.121
